{"source": "PubChem BioAssay AID1259254 (NCATS, 2017)", "screen": "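Gene knock-downs that lead to re-replication, shown by excess G2 DNA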 (primary screen)", "cells": "human HCT116 colorectal cancer cells", "knock-down reagent": "single siRNA against human genes", "timing": "3 days", "measured": "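Nuclei stained with Hoechst and imaged; cell-cycle phase assigned by DNA content; G2 share scaled per plate, non-targeting siRNA 0%, GMNN siRNA 100%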", "direction": "G2 robust z-score and G2 cells, % of GMNN control: higher = more G2 cells, more excess DNA replication", "hit rule": "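Active siRNAs have a G2 robust z of 5 or more median absolute deviations over the median, which in these data means about 38% or higher of GMNN control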", "note": "Here is a random part of about 59,000 reagents. In the full data, about 1,550 (2.6%) were called active. 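G2 share is only a proxy for re-replication; each gene was hit by three separate siRNAs, and active genes were retested.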 Unmarked entries are inactive. The numbers tell different reagents against one gene apart. Not all columns of the deposit are shown. The record does not give: the amount of reagent."}
{"gene knocked down":"ZNF33A","reagent no.":1,"G2 robust z-score":-0.657,"G2 cells, % of GMNN control":-1.66}
{"gene knocked down":"ZNF33A","reagent no.":2,"G2 robust z-score":0.276,"G2 cells, % of GMNN control":4.91}
{"gene knocked down":"ZNF33A","reagent no.":3,"G2 robust z-score":-0.223,"G2 cells, % of GMNN control":1.4}
{"gene knocked down":"FBXO10","reagent no.":1,"G2 robust z-score":2.97,"G2 cells, % of GMNN control":23.8}
{"gene knocked down":"FBXO10","reagent no.":2,"G2 robust z-score":-0.526,"G2 cells, % of GMNN control":-0.737}
{"gene knocked down":"FBXO10","reagent no.":3,"G2 robust z-score":0.453,"G2 cells, % of GMNN control":6.16}
{"gene knocked down":"SLC16A5","reagent no.":1,"G2 robust z-score":-0.793,"G2 cells, % of GMNN control":-2.61}
{"gene knocked down":"SLC16A5","reagent no.":2,"G2 robust z-score":-0.733,"G2 cells, % of GMNN control":-2.19}
{"gene knocked down":"SLC16A5","reagent no.":3,"G2 robust z-score":-0.55,"G2 cells, % of GMNN control":-0.899}
{"gene knocked down":"MEN1","reagent no.":1,"G2 robust z-score":0.24,"G2 cells, % of GMNN control":4.65}
{"gene knocked down":"MEN1","reagent no.":2,"G2 robust z-score":-0.705,"G2 cells, % of GMNN control":-1.99}
{"gene knocked down":"MEN1","reagent no.":3,"G2 robust z-score":-1.05,"G2 cells, % of GMNN control":-4.44}

Laid out differently: results already given
gene knocked down | reagent no. | G2 robust z-score | G2 cells, % of GMNN control
MEN1 | 1 | 0.24 | 4.65
MEN1 | 2 | -0.705 | -1.99
